These are yes or no findings as the source states them, for the method shown. In cells and extracts the contact can be indirect. Some entries that bind do so weakly or less than the wild type.
How the values were obtained:
[1] = molecular target: E2F1 (human (endogenous in 293T and Y79)) (UniProt Q01094); assay: co-IP; endogenous proteins; 293T and Y79 cell extracts immunoprecipitated with anti-E2F1 antisera and immunoblotted for FoxO1
HA-E2F1 = HA-E2F1 (UniProt Q01094); assay: co-IP; 293T cells transfected with HA-E2F1 and Flag-FoxO1, lysed, immunoprecipitated with anti-HA and blotted with anti-FLAG

Sequences of proteins named here, by UniProt entry; tags and fusion partners are left off.
UniProt Q01094: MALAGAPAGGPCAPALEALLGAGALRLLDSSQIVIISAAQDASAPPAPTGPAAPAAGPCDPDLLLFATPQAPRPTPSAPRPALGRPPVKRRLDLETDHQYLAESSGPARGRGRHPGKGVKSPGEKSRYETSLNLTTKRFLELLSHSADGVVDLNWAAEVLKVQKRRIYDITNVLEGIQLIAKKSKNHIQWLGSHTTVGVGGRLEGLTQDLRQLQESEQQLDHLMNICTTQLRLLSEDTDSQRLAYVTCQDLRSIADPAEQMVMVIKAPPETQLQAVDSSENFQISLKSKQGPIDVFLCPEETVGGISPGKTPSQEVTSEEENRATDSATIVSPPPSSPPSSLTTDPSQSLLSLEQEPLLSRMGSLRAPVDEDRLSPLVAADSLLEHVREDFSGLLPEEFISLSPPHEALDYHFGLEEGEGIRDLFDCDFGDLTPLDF
UniProt Q12778: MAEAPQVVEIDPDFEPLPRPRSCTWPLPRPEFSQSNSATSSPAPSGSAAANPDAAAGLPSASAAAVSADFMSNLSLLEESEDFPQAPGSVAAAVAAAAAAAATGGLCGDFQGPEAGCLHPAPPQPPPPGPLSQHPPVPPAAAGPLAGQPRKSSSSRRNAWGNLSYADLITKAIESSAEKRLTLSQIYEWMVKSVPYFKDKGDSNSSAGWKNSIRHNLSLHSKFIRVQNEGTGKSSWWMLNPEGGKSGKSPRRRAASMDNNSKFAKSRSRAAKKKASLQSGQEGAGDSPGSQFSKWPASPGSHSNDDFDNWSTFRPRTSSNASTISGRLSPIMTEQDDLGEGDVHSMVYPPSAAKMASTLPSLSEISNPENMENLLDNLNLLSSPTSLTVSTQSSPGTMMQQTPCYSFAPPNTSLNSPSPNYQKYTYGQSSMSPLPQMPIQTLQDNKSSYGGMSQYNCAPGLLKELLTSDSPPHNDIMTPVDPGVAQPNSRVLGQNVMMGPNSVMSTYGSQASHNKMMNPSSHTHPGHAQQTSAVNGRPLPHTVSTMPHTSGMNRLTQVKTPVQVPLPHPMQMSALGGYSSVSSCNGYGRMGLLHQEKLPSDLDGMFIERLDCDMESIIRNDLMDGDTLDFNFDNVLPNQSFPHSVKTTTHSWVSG

Substance | binding [1] | binding (HA-E2F1)
FOXO1 (from UniProt Q12778 1-655) | binds | 
Flag-FoxO1 (from UniProt Q12778 1-655) |  | binds
